Data source: PubChem BioAssay AID504774 (Drosophila RNAi Screening Center, 2011)
Assay: 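Genes required for cells to withstand methyl methanesulphonate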 (primary screen). System: Drosophila Kc167 cells. Reagent: long dsRNA against Drosophila genes, about 0.25 µg dsRNA per well. Duration: about 6 days: 3 days knock-down, then 3 days with or without MMS. Challenge: methyl methanesulphonate 0.004% (w/v) for 3 days after knock-down. Measured: 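Viability in wells given MMS, read as ATP luminescence, normalised by quantiles plate by plate and averaged across replicates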. Direction: mean viability with MMS and viability with MMS: higher = more surviving cells after MMS.
The deposit covers about 23,000 reagents; below is a random part of those that have a named target and a result. 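Values are quantile-normalised luminescence on an arbitrary scale; higher means more cells surviving MMS.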 Reagents against one gene are numbered here. Names joined by + are all predicted targets of the reagent. Further read-outs or replicates are left out here. No sequences are given here.

{"gene": "pll (GeneID 43283)", "reagent no.": 1, "mean viability with MMS": 3.67e6, "viability with MMS, replicate 1": 4.23e6}
{"gene": "oaf (GeneID 33435)", "reagent no.": 1, "mean viability with MMS": 3.52e6, "viability with MMS, replicate 1": 3.99e6}
{"gene": "su(r) (GeneID 31858)", "reagent no.": 1, "mean viability with MMS": 3.52e6, "viability with MMS, replicate 1": 4.15e6}
{"gene": "CG14667 (GeneID 40643)", "reagent no.": 1, "mean viability with MMS": 3.66e6, "viability with MMS, replicate 1": 4.19e6}
{"gene": "Ac78C (GeneID 40333)", "reagent no.": 1, "mean viability with MMS": 3.72e6, "viability with MMS, replicate 1": 4.21e6}
{"gene": "Ac78C (GeneID 40333)", "reagent no.": 2, "mean viability with MMS": 3.56e6, "viability with MMS, replicate 1": 4.00e6}
{"gene": "Ac78C (GeneID 40333)", "reagent no.": 3, "mean viability with MMS": 3.55e6, "viability with MMS, replicate 1": 3.95e6}
{"gene": "CG14109 (GeneID 39512)", "reagent no.": 1, "mean viability with MMS": 3.64e6, "viability with MMS, replicate 1": 4.03e6}
{"gene": "Eip78C (GeneID 40345)", "reagent no.": 1, "mean viability with MMS": 2.99e6, "viability with MMS, replicate 1": 3.59e6}
{"gene": "Eip78C (GeneID 40345)", "reagent no.": 2, "mean viability with MMS": 3.51e6, "viability with MMS, replicate 1": 3.80e6}
{"gene": "Gip (GeneID 31960)", "reagent no.": 1, "mean viability with MMS": 1.85e6, "viability with MMS, replicate 1": 4.11e6}
{"gene": "CG5199 (GeneID 40265)", "reagent no.": 1, "mean viability with MMS": 3.56e6, "viability with MMS, replicate 1": 4.08e6}
{"gene": "CG33346 (GeneID 2768690)", "reagent no.": 1, "mean viability with MMS": 3.44e6, "viability with MMS, replicate 1": 3.94e6}
{"gene": "Ets96B (GeneID 42952)", "reagent no.": 1, "mean viability with MMS": 3.45e6, "viability with MMS, replicate 1": 3.78e6}
{"gene": "Gr2a (GeneID 31093)", "reagent no.": 1, "mean viability with MMS": 3.60e6, "viability with MMS, replicate 1": 4.05e6}
{"gene": "CG18649 (GeneID 39636)", "reagent no.": 1, "mean viability with MMS": 3.62e6, "viability with MMS, replicate 1": 4.15e6}
{"gene": "CG10631 (GeneID 35262)", "reagent no.": 1, "mean viability with MMS": 3.65e6, "viability with MMS, replicate 1": 4.06e6}
{"gene": "Prx6c + CG12896 + Prx6b", "reagent no.": 1, "mean viability with MMS": 3.63e6, "viability with MMS, replicate 1": 4.04e6}
{"gene": "pins (GeneID 53569)", "reagent no.": 1, "mean viability with MMS": 3.45e6, "viability with MMS, replicate 1": 3.90e6}
{"gene": "Taf12 (GeneID 41406)", "reagent no.": 1, "mean viability with MMS": 3.52e6, "viability with MMS, replicate 1": 3.96e6}
{"gene": "dop (GeneID 39686)", "reagent no.": 1, "mean viability with MMS": 3.50e6, "viability with MMS, replicate 1": 4.03e6}
{"gene": "alien + CG17906", "reagent no.": 1, "mean viability with MMS": 3.60e6, "viability with MMS, replicate 1": 3.99e6}
{"gene": "simj (GeneID 39212)", "reagent no.": 1, "mean viability with MMS": 3.44e6, "viability with MMS, replicate 1": 3.96e6}
{"gene": "ken (GeneID 37785)", "reagent no.": 1, "mean viability with MMS": 2.46e6, "viability with MMS, replicate 1": 3.29e6}
{"gene": "ken (GeneID 37785)", "reagent no.": 2, "mean viability with MMS": 3.57e6, "viability with MMS, replicate 1": 4.08e6}
{"gene": "RpL15 (GeneID 3354918)", "reagent no.": 1, "mean viability with MMS": 3.09e6, "viability with MMS, replicate 1": 3.69e6}
{"gene": "CG34155 (GeneID 4379867)", "reagent no.": 1, "mean viability with MMS": 3.42e6, "viability with MMS, replicate 1": 3.90e6}
{"gene": "Rabex-5 (GeneID 38144)", "reagent no.": 1, "mean viability with MMS": 3.76e6, "viability with MMS, replicate 1": 4.24e6}
{"gene": "Atf3 (GeneID 43867)", "reagent no.": 1, "mean viability with MMS": 2.87e6, "viability with MMS, replicate 1": 3.64e6}
{"gene": "Atf3 (GeneID 43867)", "reagent no.": 2, "mean viability with MMS": 3.54e6, "viability with MMS, replicate 1": 4.01e6}
{"gene": "CG14329 (GeneID 42116)", "reagent no.": 1, "mean viability with MMS": 3.27e6, "viability with MMS, replicate 1": 3.72e6}
{"gene": "tor (GeneID 35717)", "reagent no.": 1, "mean viability with MMS": 3.58e6, "viability with MMS, replicate 1": 4.00e6}
{"gene": "sog (GeneID 32498)", "reagent no.": 1, "mean viability with MMS": 3.47e6, "viability with MMS, replicate 1": 3.92e6}
{"gene": "Spn43Ad (GeneID 35639)", "reagent no.": 1, "mean viability with MMS": 3.62e6, "viability with MMS, replicate 1": 4.07e6}
{"gene": "CG32280 (GeneID 317952)", "reagent no.": 1, "mean viability with MMS": 3.41e6, "viability with MMS, replicate 1": 3.78e6}
{"gene": "mAcon1 (GeneID 44149)", "reagent no.": 1, "mean viability with MMS": 3.54e6, "viability with MMS, replicate 1": 3.94e6}
{"gene": "CG14630 (GeneID 44620)", "reagent no.": 1, "mean viability with MMS": 3.61e6, "viability with MMS, replicate 1": 4.12e6}
{"gene": "CG14630 (GeneID 44620)", "reagent no.": 2, "mean viability with MMS": 3.39e6, "viability with MMS, replicate 1": 3.95e6}
{"gene": "Cyp6a19 (GeneID 36662)", "reagent no.": 1, "mean viability with MMS": 3.36e6, "viability with MMS, replicate 1": 3.70e6}
{"gene": "RpS15 (GeneID 36851)", "reagent no.": 1, "mean viability with MMS": 3.02e6, "viability with MMS, replicate 1": 3.59e6}
{"gene": "Lsp1gamma (GeneID 38015)", "reagent no.": 1, "mean viability with MMS": 3.43e6, "viability with MMS, replicate 1": 3.90e6}
{"gene": "CG13494 (GeneID 37497)", "reagent no.": 1, "mean viability with MMS": 3.62e6, "viability with MMS, replicate 1": 4.06e6}
{"gene": "msn (GeneID 44030)", "reagent no.": 1, "mean viability with MMS": 3.82e6, "viability with MMS, replicate 1": 4.36e6}
{"gene": "msn (GeneID 44030)", "reagent no.": 2, "mean viability with MMS": 3.55e6, "viability with MMS, replicate 1": 3.99e6}
{"gene": "BaraA1 + BaraA2", "reagent no.": 1, "mean viability with MMS": 3.72e6, "viability with MMS, replicate 1": 4.15e6}

4 entries from above, arranged by “viability with MMS, replicate 1”, high to low.
{"gene": "dop (GeneID 39686)", "reagent no.": 1, "mean viability with MMS": 3.50e6, "viability with MMS, replicate 1": 4.03e6}
{"gene": "alien + CG17906", "reagent no.": 1, "mean viability with MMS": 3.60e6, "viability with MMS, replicate 1": 3.99e6}
{"gene": "simj (GeneID 39212)", "reagent no.": 1, "mean viability with MMS": 3.44e6, "viability with MMS, replicate 1": 3.96e6}
{"gene": "ken (GeneID 37785)", "reagent no.": 1, "mean viability with MMS": 2.46e6, "viability with MMS, replicate 1": 3.29e6}
